Laboratory results: PubChem BioAssay AID504808 (Drosophila RNAi Screening Center, 2011)
The deposit covers about 21,000 reagents; this is a random part of those with a known target gene and a result. Over the whole deposit, 18 (0.084%) were called active. 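Raw counts without plate normalisation, one of two replicates; the ratio scores behind the calls were not deposited.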 A plus sign joins genes that one reagent is predicted to hit. The record does not give: the amount of reagent, the time to read-out.

Screen: 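Chromatin factors that keep E2F targets switched off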 (primary screen)
System: Drosophila S2 cells
Reagent: long dsRNA against Drosophila genes
Detection: 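Dual luciferase plate measurements; E2F-specific signal taken as firefly over Renilla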
Reading the numbers: E2F firefly: higher = more E2F reporter activity; Renilla normaliser: higher = more normaliser reporter signal
Call rule: 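a knock-down counted as active when the firefly/Renilla E2F signal rose above 50%, a threshold chosen arbitrarily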

target	DRSC id	E2F firefly, rep 1	Renilla normaliser, rep 1	activity call
Muc4B (Mucin 4B)	DRSC18062	1.27e5	6478	inactive
Muc4B (Mucin 4B)	DRSC18063	93512	6345	inactive
CG42535	DRSC09041	1.31e5	4682	inactive
Mocs1 (Molybdenum cofactor synthesis 1)	DRSC11225	87270	4392	inactive
eIF4E7 (eukaryotic translation initiation factor 4E7)	DRSC17782	1.04e5	5917	inactive
eIF4E7 (eukaryotic translation initiation factor 4E7)	DRSC18623	1.33e5	6242	inactive
Lpin (Lipin)	DRSC07241	2824	217	inactive
Pxn (Peroxidasin)	DRSC08685	79469	3335	inactive
beat-IIIb (beaten path IIIb)	DRSC02435	1.09e5	4496	inactive
slam (slow as molasses)	DRSC03240	1.44e5	4909	inactive
CG8141	DRSC16387	1.16e5	5523	inactive
CG30356	DRSC05119	1.26e5	5522	inactive
CG1077	DRSC12146	1.35e5	6594	inactive
CG4025	DRSC18523	1.27e5	6073	inactive
CG3610	DRSC15502	1.18e5	5986	inactive
CG42686 (retired record)	DRSC15247	57213	4204	inactive
CG42686 (retired record)	DRSC15248	1.11e5	5333	inactive
CG14355	DRSC14818	74324	3481	inactive
r-l (rudimentary-like)	DRSC17042	84008	3494	inactive
Sos (Son of sevenless)	DRSC03439	1.01e5	4037	inactive
cGlr2 (cGAS-like receptor 2)	DRSC04017	1.10e5	6430	inactive
CG42458	DRSC10335	58649	2934	inactive
Lcp65Ab2 + Lcp65Ab1	DRSC10340	94968	3825	inactive
Lcp65Ab2 + Lcp65Ab1	DRSC10343	1.01e5	3633	inactive
blp (black pearl)	DRSC15757	1.23e5	6574	inactive
CG33012	DRSC06287	1.11e5	4207	inactive
CG33012	DRSC06288	1.12e5	4596	inactive
CG12911	DRSC06226	1.46e5	5838	inactive
CG11159	DRSC06050	89898	4209	inactive
CG33467	DRSC05525	1.34e5	5092	inactive

5 of these entries, reformatted.
{"target": "cGlr2 (cGAS-like receptor 2)", "DRSC id": "DRSC04017", "E2F firefly, rep 1": 1.10e5, "Renilla normaliser, rep 1": 6430, "activity call": "inactive"}
{"target": "CG42458", "DRSC id": "DRSC10335", "E2F firefly, rep 1": 58649, "Renilla normaliser, rep 1": 2934, "activity call": "inactive"}
{"target": "Lcp65Ab2 + Lcp65Ab1", "DRSC id": "DRSC10340", "E2F firefly, rep 1": 94968, "Renilla normaliser, rep 1": 3825, "activity call": "inactive"}
{"target": "Lcp65Ab2 + Lcp65Ab1", "DRSC id": "DRSC10343", "E2F firefly, rep 1": 1.01e5, "Renilla normaliser, rep 1": 3633, "activity call": "inactive"}
{"target": "blp (black pearl)", "DRSC id": "DRSC15757", "E2F firefly, rep 1": 1.23e5, "Renilla normaliser, rep 1": 6574, "activity call": "inactive"}

More reagents follow.
target	DRSC id	E2F firefly, rep 1	Renilla normaliser, rep 1	activity call
l(2)gd1 (lethal (2) giant discs 1)	DRSC02773	74393	3354	inactive
CG10177	DRSC14201	96414	5756	inactive
CG11842	DRSC14400	1956	972	inactive
nrv3 (nervana 3)	DRSC03097	58886	3505	inactive
CG9812	DRSC04566	1.03e5	4288	inactive
Lcp65APsi (pseudo)	DRSC08795	1.25e5	3526	inactive
Lcp65APsi (pseudo)	DRSC10342	99505	4230	inactive
PKD (Protein Kinase D)	DRSC16200	1.43e5	7127	inactive
CG16957	DRSC02545	1.09e5	4603	inactive
svr (silver)	DRSC17293	67699	2594	inactive
svr (silver)	DRSC18841	51236	3765	inactive
plum	DRSC16054	1807	848	inactive
CG15202	DRSC19649	1.26e5	5758	inactive
sphinx1	DRSC10993	1.03e5	4290	inactive
Mur2B (Mucin related 2B)	DRSC18545	90180	4552	inactive
Mur2B (Mucin related 2B)	DRSC18546	1.35e5	6073	inactive
CG14683	DRSC17035	84041	3655	inactive
CG8170	DRSC07087	1.40e5	5278	inactive
CG33642	DRSC01325	1.35e5	6041	inactive
CG30109 + CG30108	DRSC05674	1.58e5	6247	inactive
Ir100a (Ionotropic receptor 100a)	DRSC14329	89929	4928	inactive
beat-IV (beaten path IV)	DRSC14195	70976	3249	inactive
beat-IV (beaten path IV)	DRSC14673	1.03e5	5291	inactive
CG9876	DRSC04586	93947	3842	inactive
CG17819	DRSC15279	1.35e5	6560	inactive
CG3860	DRSC04425	93933	3403	inactive
wfs1 (wolfram syndrome 1)	DRSC15676	1.08e5	6152	inactive
CG15628	DRSC00256	95537	4671	inactive
CG15628	DRSC00463	1.36e5	4755	inactive
CG15711	DRSC06582	1.41e5	5248	inactive
CG11768	DRSC14377	1.38e5	6682	inactive
ect (ectodermal)	DRSC10675	1.00e5	5806	inactive
ect (ectodermal)	DRSC11343	1.24e5	5251	inactive
Vps60 (Vacuolar protein sorting 60)	DRSC10610	1.59e5	6757	inactive
CG14000 + bchs	DRSC02333	1.44e5	4745	inactive
CG13067	DRSC09950	1.46e5	7743	inactive
Jon65Aiv (Jonah 65Aiv)	DRSC10644	81791	3519	inactive
stan (starry night)	DRSC05234	1.16e5	3842	inactive
stan (starry night)	DRSC07697	1.38e5	5489	inactive
Bap170 (Brahma associated protein 170kD)	DRSC04964	89704	3903	inactive
Eig71Ea (Ecdysone-induced gene 71Ea)	DRSC11148	1.70e5	7003	inactive
Xrcc2 (X-ray repair cross complementing 2)	DRSC19984	2.32e5	5616	inactive
Nf-YB (Nuclear factor Y-box B)	DRSC02057	87763	4367	inactive
CG12662	DRSC17865	74999	3948	inactive
nullo	DRSC18807	1.15e5	5493	inactive
T3dh + pgc	DRSC04659	96528	3278	inactive
TTLL3B (Tubulin tyrosine ligase-like 3B)	DRSC02133	1.49e5	4870	inactive
CG3982	DRSC10394	73360	5014	inactive
CG31419	DRSC15771	1.12e5	6258	inactive
swm (second mitotic wave missing)	DRSC02012	87228	3424	inactive
Arc1 (Activity-regulated cytoskeleton associated protein 1)	DRSC06159	78383	3748	inactive
CG11382	DRSC18624	1.20e5	5149	inactive
CG2772	DRSC00530	1.49e5	5439	inactive
Nepl4 (Neprilysin-like 4)	DRSC03239	87691	3557	inactive
